# Test results taken from paper PMC11102862.
# T1: 3xFLAG_TEV_SBP-tagged CD2BP2 (human) (UniProt O95400)
# T1 sequence: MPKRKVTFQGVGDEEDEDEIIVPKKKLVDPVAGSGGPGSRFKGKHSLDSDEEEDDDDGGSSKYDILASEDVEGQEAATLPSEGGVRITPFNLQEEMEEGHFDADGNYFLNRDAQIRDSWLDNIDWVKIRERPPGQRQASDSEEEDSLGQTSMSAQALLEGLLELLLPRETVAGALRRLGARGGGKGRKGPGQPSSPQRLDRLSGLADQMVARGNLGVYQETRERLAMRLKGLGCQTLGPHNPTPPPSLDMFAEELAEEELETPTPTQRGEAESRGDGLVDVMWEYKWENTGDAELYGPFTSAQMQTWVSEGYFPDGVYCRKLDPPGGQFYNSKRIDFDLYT
# B1: PRP6 (protein, UniProt O94906 1-941)
# chain: MNKKKKPFLGMPAPLGYVPGLGRGATGFTTRSDIGPARDANDPVDDRHAPPGKRTVGDQMKKNQAADDDDEDLNDTNYDEFNGYAGSLFSSGPYEKDDEEADAIYAALDKRMDERRKERREQREKEEIEKYRMERPKIQQQFSDLKRKLAEVTEEEWLSIPEVGDARNKRQRNPRYEKLTPVPDSFFAKHLQTGENHTSVDPRQTQFGGLNTPYPGGLNTPYPGGMTPGLMTPGTGELDMRKIGQARNTLMDMRLSQVSDSVSGQTVVDPKGYLTDLNSMIPTHGGDINDIKKARLLLKSVRETNPHHPPAWIASARLEEVTGKLQVARNLIMKGTEMCPKSEDVWLEAARLQPGDTAKAVVAQAVRHLPQSVRIYIRAAELETDIRAKKRVLRKALEHVPNSVRLWKAAVELEEPEDARIMLSRAVECCPTSVELWLALARLETYENARKVLNKARENIPTDRHIWITAAKLEEANGNTQMVEKIIDRAITSLRANGVEINREQWIQDAEECDRAGSVATCQAVMRAVIGIGIEEEDRKHTWMEDADSCVAHNALECARAIYAYALQVFPSKKSVWLRAAYFEKNHGTRESLEALLQRAVAHCPKAEVLWLMGAKSKWLAGDVPAARSILALAFQANPNSEEIWLAAVKLESENDEYERARRLLAKARSSAPTARVFMKSVKLEWVQDNIRAAQDLCEEALRHYEDFPKLWMMKGQIEEQKEMMEKAREAYNQGLKKCPHSTPLWLLLSRLEEKIGQLTRARAILEKSRLKNPKNPGLWLESVRLEYRAGLKNIANTLMAKALQECPNSGILWSEAIFLEARPQRRTKSVDALKKCEHDPHVLLAVAKLFWSQRKITKAREWFHRTVKIDSDLGDAWAFFYKFELQHGTEEQQEEVRKRCESAEPRHGELWCAVSKDIANWQKKIGDILRLVAGRIKNTF
# Biological target: T1, 3xFLAG_TEV_SBP-tagged CD2BP2 (human)
# Assay: affinity purification with mass spectrometry; 3xFLAG_TEV_SBP-CD2BP2 as bait from 293-F nuclear extract adjusted to 500 mM KCl; anti-FLAG M2 gel, TEV elution, streptavidin agarose, biotin elution; composition by solution mass spectrometry (Extended Data Table 1), members also seen in the cryo-EM map of the same preparation
binder,measurement,value
B1,binding,binds

# Results are given in words; binding and its absence hold for the method and conditions named. Binding seen in cells or lysates may run through a third protein. Here binding means that the protein was enriched with, or labelled near, the bait; the list need not be complete. Sequences can lack the tags named with a protein.
